Experimental findings from PMC8480281 are described below.

Amino acid sequences for entries named in this document (tags omitted).
UniProt Q01196: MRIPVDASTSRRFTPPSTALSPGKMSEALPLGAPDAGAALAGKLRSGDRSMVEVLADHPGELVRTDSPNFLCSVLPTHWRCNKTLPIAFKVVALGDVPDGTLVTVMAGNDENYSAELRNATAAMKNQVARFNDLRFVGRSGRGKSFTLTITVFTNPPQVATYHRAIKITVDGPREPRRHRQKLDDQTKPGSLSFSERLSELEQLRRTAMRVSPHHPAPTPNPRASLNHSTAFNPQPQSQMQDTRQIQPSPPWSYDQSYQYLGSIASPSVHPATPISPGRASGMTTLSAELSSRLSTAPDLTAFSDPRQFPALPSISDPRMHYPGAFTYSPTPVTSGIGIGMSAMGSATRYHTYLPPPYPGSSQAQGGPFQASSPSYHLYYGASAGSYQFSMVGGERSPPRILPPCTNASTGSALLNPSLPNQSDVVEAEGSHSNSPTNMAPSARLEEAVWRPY
UniProt Q03347: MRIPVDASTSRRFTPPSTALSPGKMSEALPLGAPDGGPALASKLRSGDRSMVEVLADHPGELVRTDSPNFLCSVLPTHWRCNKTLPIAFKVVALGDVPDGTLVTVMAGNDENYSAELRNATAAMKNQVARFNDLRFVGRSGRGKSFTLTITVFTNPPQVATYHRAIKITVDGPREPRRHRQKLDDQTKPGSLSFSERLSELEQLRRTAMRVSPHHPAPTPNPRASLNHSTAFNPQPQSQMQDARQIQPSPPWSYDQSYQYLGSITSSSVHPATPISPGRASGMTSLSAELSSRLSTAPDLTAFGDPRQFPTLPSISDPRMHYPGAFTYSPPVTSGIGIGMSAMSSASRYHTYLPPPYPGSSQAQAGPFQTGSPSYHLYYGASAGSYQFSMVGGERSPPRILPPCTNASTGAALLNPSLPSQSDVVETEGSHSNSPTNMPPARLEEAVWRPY
UniProt Q13951: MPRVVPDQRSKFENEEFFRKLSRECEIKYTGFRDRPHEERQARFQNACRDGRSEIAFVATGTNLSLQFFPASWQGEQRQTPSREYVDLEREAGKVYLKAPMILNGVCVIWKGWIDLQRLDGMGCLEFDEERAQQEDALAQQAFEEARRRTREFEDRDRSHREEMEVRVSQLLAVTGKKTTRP
UniProt P49715: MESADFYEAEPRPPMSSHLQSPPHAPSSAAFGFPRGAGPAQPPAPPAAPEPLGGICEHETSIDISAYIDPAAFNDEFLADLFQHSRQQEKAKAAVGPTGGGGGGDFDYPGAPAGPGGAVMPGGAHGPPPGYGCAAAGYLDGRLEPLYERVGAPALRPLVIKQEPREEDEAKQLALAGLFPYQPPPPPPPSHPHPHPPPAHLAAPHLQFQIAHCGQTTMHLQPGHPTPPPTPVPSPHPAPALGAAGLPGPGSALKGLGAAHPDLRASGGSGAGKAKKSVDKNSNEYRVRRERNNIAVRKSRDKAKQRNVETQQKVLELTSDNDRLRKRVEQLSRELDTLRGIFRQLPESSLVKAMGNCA
UniProt Q04726: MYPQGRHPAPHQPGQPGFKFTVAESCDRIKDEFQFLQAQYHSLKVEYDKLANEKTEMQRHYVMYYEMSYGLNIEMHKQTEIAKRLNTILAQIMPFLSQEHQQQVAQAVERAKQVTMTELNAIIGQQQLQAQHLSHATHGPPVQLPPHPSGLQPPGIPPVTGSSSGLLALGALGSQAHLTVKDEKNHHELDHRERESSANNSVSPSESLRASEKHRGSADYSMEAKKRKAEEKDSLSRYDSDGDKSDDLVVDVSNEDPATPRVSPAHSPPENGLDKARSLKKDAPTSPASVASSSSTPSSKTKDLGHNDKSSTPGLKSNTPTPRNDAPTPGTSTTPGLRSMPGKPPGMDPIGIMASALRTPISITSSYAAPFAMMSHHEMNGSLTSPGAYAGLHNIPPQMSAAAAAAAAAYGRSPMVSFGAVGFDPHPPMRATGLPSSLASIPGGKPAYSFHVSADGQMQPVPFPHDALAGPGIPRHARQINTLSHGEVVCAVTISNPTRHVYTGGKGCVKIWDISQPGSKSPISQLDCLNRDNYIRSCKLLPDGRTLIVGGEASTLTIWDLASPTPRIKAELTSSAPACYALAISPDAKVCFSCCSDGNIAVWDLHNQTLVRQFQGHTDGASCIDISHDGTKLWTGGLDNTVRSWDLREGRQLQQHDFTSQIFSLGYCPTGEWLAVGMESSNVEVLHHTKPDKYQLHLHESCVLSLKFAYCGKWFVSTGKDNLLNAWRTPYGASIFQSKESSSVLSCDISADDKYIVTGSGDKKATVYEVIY

Residue numbers refer to the chain shown, from its start. These are yes or no findings as the source states them, for the method shown. Binding seen in cells or lysates may run through a third protein. Some binding calls cover weakened binding; strength is not graded here. For part of these data: Tags and fused reporters may be left off the sequences shown.

Test [1] deals with T1, FOXC1 (Forkhead box C1), endogenous (human (endogenous in Fujioka and primary AML cells)) (UniProt Q12948).
T1 sequence: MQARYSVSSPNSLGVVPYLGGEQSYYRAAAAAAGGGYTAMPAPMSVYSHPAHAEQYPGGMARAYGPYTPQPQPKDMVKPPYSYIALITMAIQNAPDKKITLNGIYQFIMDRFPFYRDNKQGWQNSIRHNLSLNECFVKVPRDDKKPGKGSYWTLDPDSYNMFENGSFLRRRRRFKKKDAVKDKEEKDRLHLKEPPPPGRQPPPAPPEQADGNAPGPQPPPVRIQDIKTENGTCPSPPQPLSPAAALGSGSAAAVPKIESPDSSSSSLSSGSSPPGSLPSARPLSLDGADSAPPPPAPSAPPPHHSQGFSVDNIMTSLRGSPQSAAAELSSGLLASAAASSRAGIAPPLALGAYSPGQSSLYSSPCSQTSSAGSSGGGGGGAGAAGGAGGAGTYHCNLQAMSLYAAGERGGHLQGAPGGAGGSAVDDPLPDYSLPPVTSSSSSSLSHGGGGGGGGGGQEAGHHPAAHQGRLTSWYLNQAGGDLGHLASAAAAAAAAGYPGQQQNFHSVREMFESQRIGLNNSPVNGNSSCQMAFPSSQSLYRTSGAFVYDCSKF
In words: co-IP; endogenous proteins, Fujioka cell lysate in TNN buffer (50mM Tris-Cl pH7.5, 100mM NaCl, 5mM EDTA, 0.5% Nonidet p40) with Benzonase nuclease; anti-FOXC1 or anti-RUNX1 antibody on Protein G Sepharose, 4°C overnight; western blot. For orientation: Immunoblotting shows a protein as a band on a membrane.

The target of a further test is T2, FOXC1 F112S-Myc (human) (UniProt Q12948).
T2 sequence: T1 sequence with F112S
In words: co-IP; Fujioka cells infected with lentiviruses expressing full-length or mutant FOXC1-Myc; lysate in TNN buffer with Benzonase; endogenous RUNX1 and CEBPA; western blot.

The target in a further test is T3, FOXC1 G165R-Myc (human) (UniProt Q12948).
T3 sequence: T1 sequence with G165R
The description is as above.

Test [2] deals with T4, FOXC1-Myc, full length, doxycycline-inducible lentiviral expression (human) (UniProt Q12948).
T4 sequence: T1 sequence
The description is as above.

The next test deals with T5, FOXC1 in 293 cells (UniProt Q12948).
T5 sequence: T1 sequence
Put plainly: co-IP; 293 cells transfected with FLAG-Runx1b full-length or domain mutants; lysate in TNN buffer with Benzonase; western blot.

The target in test [3] is RUNX1, endogenous (human (endogenous in Fujioka and primary AML cells)) (UniProt Q01196). In words: co-IP; endogenous proteins, Fujioka cell lysate in TNN buffer (50mM Tris-Cl pH7.5, 100mM NaCl, 5mM EDTA, 0.5% Nonidet p40) with Benzonase nuclease; anti-FOXC1 or anti-RUNX1 antibody on Protein G Sepharose, 4°C overnight; western blot.

For the substance “RUNX1, endogenous (from UniProt Q01196 1-453)”, the binding result (in test [1]; with FOXC1 F112S-Myc (human); with FOXC1 G165R-Myc (human); in test [2]) was “binds” in each case.
In the case of “FLAG-tagged murine Runx1b (proximal Runx1 isoform), full length (from UniProt Q03347 1-451)”, the binding result with FOXC1 in 293 cells is given as “binds”.
As for “CBFB, endogenous (from UniProt Q13951 1-182)”, the binding result in test [1] is on record as “binds”.
Turning to “CEBPA, endogenous (from UniProt P49715 1-358)”, the binding entry (in test [1]; with FOXC1 F112S-Myc (human); with FOXC1 G165R-Myc (human); in test [2]) was “binds” each time.
For “Groucho co-repressor family member TLE3, endogenous (from UniProt Q04726 1-772)”, the binding entry in test [1] and in test [3] was “binds” each time.
